Laboratory results reported in the supplement of paper PMC6414424.
Counter-ions that a name gives are not always drawn. ± gives the standard deviation of the averaged measurements. The list shows a part of the results.

Test system: APPdp1-6 iPSC-derived neurons
Experiment: pThr231Tau/total Tau ratio Z-score vs DMSO vehicle wells; higher = more pThr231Tau relative to total Tau
Conditions: 5 µM; treatment time 5 days

Compound | pThr231Tau/total Tau ratio Z-score
CC1(C)[C@@H](OC(=O)CCC(=O)O)CC[C@]2(C)[C@H]3C(=O)C=C4[C@@H]5C[C@@](C)(C(=O)O)CC[C@]5(C)CC[C@@]4(C)[C@]3(C)CC[C@@H]12 [Prestw-837] | 0.229 ± 0.037
C#C[C@]1(O)CC[C@H]2[C@@H]3CCC4=CC(=O)CC[C@@H]4[C@H]3CC[C@@]21CC [Prestw-773] | -0.846 ± 0.23
CO/N=C(\C(=O)N[C@@H]1C(=O)N2C(C(=O)OC(C)OC(C)=O)=C(COC(N)=O)CS[C@H]12)c1ccco1 (some centres undefined) [CEFUROXIME AXETIL    Therap cat: antibiotic] | -0.593 ± 0.48
CCCSc1ccc2nc(NC(=O)OC)[nH]c2c1 [Prestw-247] | -4.24 ± 0.8
Cc1cc(N)c2ccccc2[n+]1CCCCCCCCCC[n+]1c(C)cc(N)c2ccccc21 [Prestw-388] | -4.86 ± 1.6
Nc1ccn([C@@H]2CS[C@H](CO)O2)c(=O)n1 [Prestw-1298] | -0.894 ± 0.59
Nc1c2c(nc3ccccc13)CCCC2O (centres undefined) [Prestw-448] | -0.0568 ± 0.6
COc1ccccc1OCC(O)COC(N)=O (centres undefined) [Prestw-184] | -0.359 ± 1.5
NC1CCN(c2nc3c(cc2F)c(=O)c(C(=O)O)cn3-c2ccc(F)cc2F)C1 (centres undefined) [Prestw-1464] | 1.23 ± 0.21
COC(=O)Nc1nc2cc([S+]([O-])c3ccccc3)ccc2[nH]1 (centres undefined) [Prestw-1459] | -0.438 ± 1.5
c1ccc(CNc2ncnc3nc[nH]c23)cc1 [Prestw-189] | -0.269 ± 0.17
CCCOc1ccccc1-c1nc2n[nH]nc2c(=O)[nH]1 [Prestw-335] | 0.38 ± 1.6
CC(=O)Oc1cccc(C)c1 [meta-CRESYL ACETATE] | 0.356 ± 0.72
FC(F)(F)COCC(F)(F)F [FLUROTHYL, central stimulant, convulsant] | 0.593 ± 2.8
CN1Cc2c(N)cccc2C(c2ccccc2)C1 (centres undefined) [Prestw-108] | -1.5 ± 0.97
O=C1NC(=O)C(c2ccccc2)(c2ccccc2)N1 [Anticonvulsant; anti-epileptic] | 1.33 ± 2.3
CC(C)(O)c1ccccc1CC[C@@H](SCC1(CC(=O)O)CC1)c1cccc(/C=C/c2ccc3ccc(Cl)cc3n2)c1 [MONTELUKAST SODIUM, leucotriene antagonist, antiasthmatic] | 0.704 ± 1.5
CC(C)(O)c1ccccc1CC[C@@H](SCC1(CC(=O)O)CC1)c1cccc(/C=C/c2ccc3ccc(Cl)cc3n2)c1 [Prestw-1189] | -0.866 ± 0.68
CCN[C@@H]1C[C@H](N)[C@@H](O[C@H]2OC(CN)=CC[C@H]2N)[C@H](O)[C@H]1O[C@H]1OC[C@](C)(O)[C@H](NC)[C@H]1O [NETILMICIN SULFATE, antibacterial] | 1.41 ± 0.28
OCc1ccccc1O [SALICYL ALCOHOL    Therap cat:  Local anesthetic] | 0.915 ± 1.5
O=C(c1ccccc1)c1ccc2n1CCC2C(=O)O (centres undefined) [Prestw-929] | 0.71 ± 0.99
CCOC(=O)[C@@](C)(N)Cc1ccc(O)c(O)c1 [Prestw-1038] | -1.11 ± 0.84
COc1c(N2CCNC(C)C2)c(F)cc2c(=O)c(C(=O)O)cn(C3CC3)c12 (centres undefined) [Prestw-1265] | 0.203 ± 0.29
O=c1ccc2ccccc2o1 [Coumarin] | 1.98 ± 0.12
CN(C)CCCN1c2ccccc2Sc2ccc(Cl)cc21 [Prestw-64] | -1.03 ± 0.51
CCOc1ccccc1OC(c1ccccc1)C1CNCCO1 (centres undefined) [Prestw-1328] | 0.00712 ± 0.2
O=c1[nH]cnc2c1ncn2[C@@H]1O[C@H](CO)[C@@H](O)[C@H]1O [INOSINE    Therap cat: activates cellular functions] | -0.291 ± 1.7

Compound | pThr231Tau/total Tau ratio Z-score
COc1cc([C@@H]2c3cc4c(cc3[C@@H](O[C@@H]3O[C@@H]5CO[C@@H](c6cccs6)O[C@H]5[C@H](O)[C@H]3O)[C@H]3COC(=O)[C@H]23)OCO4)cc(OC)c1O [TENIPOSIDE    Therap cat: antineoplastic] | -4.66 ± 0.79
O=C1C(=O)c2ccccc2C(O)=C1C1CCC(c2ccc(Cl)cc2)CC1 (centres undefined) [Prestw-534] | -0.945 ± 0.7
C[C@@H]1C[C@H]2[C@@H]3C[C@H](F)C4=CC(=O)C=C[C@]4(C)[C@@]3(F)[C@@H](O)C[C@]2(C)[C@@]1(O)C(=O)COC(=O)C(C)(C)C | 1.22 ± 0.75
CO[C@H]1C[C@H](O[C@H]2[C@H](C)[C@@H](O[C@@H]3O[C@H](C)C[C@H](N(C)C)[C@H]3O)[C@@H](C)C[C@@]3(CO3)C(=O)[C@H](C)[C@@H](O)[C@@H](C)[C@@H](C)OC(=O)[C@@H]2C)O[C@@H](C)[C@@H]1O | 0.51 ± 0.74
Nc1ccc(S(=O)(=O)Nc2ccccn2)cc1 [Prestw-762] | -0.709 ± 0.6
O=c1[nH]c(=O)c2ccccc2o1 | 0.311 ± 1.3
Nc1ccn([C@@H]2O[C@H](CO)[C@@H](O)[C@@H]2O)c(=O)n1 [Prestw-1134] | 0.82 ± 0.51
CC(C)(C)c1ccc(C(O)CCCN2CCC(C(O)(c3ccccc3)c3ccccc3)CC2)cc1 (centres undefined) [Prestw-138] | -3.55 ± 0.24
CC(COc1ccccc1)NC(C)C(O)c1ccc(O)cc1 (centres undefined) [Prestw-68] | 1.33 ± 0.75
CCCCN1CCCCC1C(=O)Nc1c(C)cccc1C (centres undefined) [Prestw-305] | -0.852 ± 0.48
CCOC(=O)NNc1nncc2ccccc12 [Prestw-71] | 0.531 ± 1.1
CCN(CCO)CCCC(C)Nc1ccnc2cc(Cl)ccc12 (centres undefined) [Prestw-1284] | 0.551 ± 2.3
COc1ccc(CC2c3cc(OC)c(OC)cc3CC[N+]2(C)CCC(=O)OCCCCCOC(=O)CC[N+]2(C)CCc3cc(OC)c(OC)cc3C2Cc2ccc(OC)c(OC)c2)cc1OC (centres undefined) [Prestw-5] | -0.677 ± 0.47
CC(=O)[C@H]1CC[C@H]2[C@@H]3CC=C4C[C@@H](O)CC[C@]4(C)[C@H]3CC[C@]12C [Prestw-546] | 0.381 ± 0.58
CN(C)c1ccc(C(=C2C=CC(=[N+](C)C)C=C2)c2ccc(N(C)C)cc2)cc1 | -3.62 ± 1.6
CSc1ccc2c(c1)N(CCC1CCCCN1C)c1ccccc1S2 (centres undefined) [Prestw-78] | -2 ± 0.26
CC/C(=C(/CC)c1ccc(O)cc1)c1ccc(O)cc1 [Prestw-756] | -0.626 ± 0.015
CC1=C(/C=C/C(C)=C/C=C/C(C)=C\C(=O)O)C(C)(C)CCC1 [Prestw-256] | 1.56 ± 1.2
Cc1cc(-c2ccccc2)nnc1NCCN1CCOCC1 [Prestw-66] | 0.407 ± 0.91
NC(N)=Nc1nc(CSCC/C(N)=N/S(N)(=O)=O)cs1 [Prestw-104] | 0.221 ± 0.43
COc1cc(-c2ccc(=O)[nH]n2)ccc1OC(F)F [Prestw-977] | 0.105 ± 1.1
CCCCC1(COC(=O)CCC(=O)O)C(=O)N(c2ccccc2)N(c2ccccc2)C1=O [Prestw-658] | 0.561 ± 0.019
COc1cc(NC(C)CCCN)c2ncccc2c1 (centres undefined) [Prestw-476] | -2.34 ± 0.55
CCCCNc1c(C(=O)OCC)c(C)nc2c1cnn2CC [Prestw-976] | -0.229 ± 0.059
C[C@]12CC[C@@H]3c4ccc(OS(=O)(=O)O)cc4CC[C@H]3[C@@H]1CCC2=O [Prestw-688] | 0.229 ± 0.55
C[C@]12CC[C@@H]3c4ccc(OS(=O)(=O)O)cc4CC[C@H]3[C@@H]1CCC2=O [ESTROPIPATE, estrogen] | -0.408 ± 0.42
COc1cccc(OC)c1C(=O)N[C@@H]1C(=O)N2[C@@H]1SC(C)(C)[C@@H]2C(=O)O [METHICILLIN SODIUM    Therap cat: antibacterial] | 0.744 ± 1.4

Some of the entries above, reformatted.
Compound	pThr231Tau/total Tau ratio Z-score
O=C1NC(=O)C(c2ccccc2)(c2ccccc2)N1 [Anticonvulsant; anti-epileptic]	1.33 ± 2.3
CC(C)(O)c1ccccc1CC[C@@H](SCC1(CC(=O)O)CC1)c1cccc(/C=C/c2ccc3ccc(Cl)cc3n2)c1 [MONTELUKAST SODIUM, leucotriene antagonist, antiasthmatic]	0.704 ± 1.5
CC(C)(O)c1ccccc1CC[C@@H](SCC1(CC(=O)O)CC1)c1cccc(/C=C/c2ccc3ccc(Cl)cc3n2)c1 [Prestw-1189]	-0.866 ± 0.68
CCN[C@@H]1C[C@H](N)[C@@H](O[C@H]2OC(CN)=CC[C@H]2N)[C@H](O)[C@H]1O[C@H]1OC[C@](C)(O)[C@H](NC)[C@H]1O [NETILMICIN SULFATE, antibacterial]	1.41 ± 0.28
OCc1ccccc1O [SALICYL ALCOHOL    Therap cat:  Local anesthetic]	0.915 ± 1.5
O=C(c1ccccc1)c1ccc2n1CCC2C(=O)O (centres undefined) [Prestw-929]	0.71 ± 0.99
CCOC(=O)[C@@](C)(N)Cc1ccc(O)c(O)c1 [Prestw-1038]	-1.11 ± 0.84

Next part:

Compound | pThr231Tau/total Tau ratio Z-score
Cc1ccc(S(=O)(=O)NC(=O)NN2CCCCCC2)cc1 [Prestw-554] | 0.537 ± 0.88
CC(C)(C)CC(C)(C)c1ccc(O)c(Cc2ccc(Cl)cc2Cl)c1 [CLOFOCTOL    Therap cat: antibacterial] | 0.303 ± 2.1
OC(CCCN1CCCCC1)(c1ccccc1)c1ccccc1 [Prestw-252] | -1.14 ± 0.54
CCN(CC)CCOC(=O)C(c1ccccc1)c1ccccc1 [Prestw-75] | -0.274 ± 0.068
CCOC(=O)c1ccc(N)cc1 [Prestw-712] | -0.773 ± 0.58
Nc1nc(NC2CC2)c2ncn([C@H]3C=C[C@@H](CO)C3)c2n1 [Prestw-1512] | -0.134 ± 0.33
O=C(COc1ccc(Cl)cc1)N1CCN(Cc2ccc3c(c2)OCO3)CC1 [Prestw-298] | 0.644 ± 1.4
CNC(C)CCC=C(C)C (centres undefined) [Prestw-1023] | 1.33 ± 0.36
CN(Cc1cnc2nc(N)nc(N)c2n1)c1ccc(C(=O)N[C@@H](CCC(=O)O)C(=O)O)cc1 [Prestw-373] | 0.939 ± 0.79
CN(Cc1cnc2nc(N)nc(N)c2n1)c1ccc(C(=O)N[C@@H](CCC(=O)O)C(=O)O)cc1 [Prestw-135] | 0.881 ± 1.1
CCOc1ccc2nc3cc(N)ccc3c(N)c2c1 | -2.67 ± 0.13
CCN(CC)CCNc1ccc(CO)c2sc3ccccc3c(=O)c12 [Prestw-355] | -1.29 ± 1.2
Cc1ccsc1/C=C/C1=NCCCN1C [Prestw-61] | 0.0271 ± 0.85
COc1cc(C=CC(=O)O)cc(OC)c1O | -0.0194 ± 0.56
Cc1cnc(C(=O)NCCc2ccc(S(=O)(=O)NC(=O)NC3CCCCC3)cc2)cn1 [Prestw-131] | 1.52 ± 0.63
O=C1[C@H](CC[C@H](O)c2ccc(F)cc2)[C@@H](c2ccc(O)cc2)N1c1ccc(F)cc1 [EZETIMIBE, sterol absorption inhibitor] | 1.39 ± 0.25
O=S(=O)(O)c1cc(I)c(O)c2ncccc12 | -0.422 ± 0.68
COc1ccccc1N1CCN(CCCCNC(=O)c2ccc3ccccc3c2)CC1 [Prestw-559] | -0.0907 ± 0.047
CCC1NC(=O)c2cc(S(N)(=O)=O)c(Cl)cc2N1 (centres undefined) [Prestw-1050] | -0.518 ± 0.093
CC(O)(P(=O)(O)O)P(=O)(O)O [Prestw-863] | 0.0236 ± 0.71
CCN(CC)CCOc1ccc(C(=C(Cl)c2ccccc2)c2ccccc2)cc1 [Prestw-397] | -1.47 ± 1.7
CCCCNc1ccc(C(=O)OCCN(C)C)cc1 [Prestw-571] | -0.64 ± 0.23
CN1CCOC(c2ccccc2)c2ccccc2C1 (centres undefined) [Prestw-229] | 0.241 ± 0.65
COC(=O)Nc1nc2ccc(C(=O)c3ccc(F)cc3)cc2[nH]1 [Prestw-1416] | -4.12 ± 0.1
CN1CCC(=C2c3ccccc3CCc3sccc32)CC1 [Prestw-992] | 1.44 ± 3.5
